In the supplement of paper PMC10849652:
This is one part of the list.

Amino acid sequences for entries named in this document (tags omitted). A change or cut given only in a name is not applied to a line headed by its entry.
UniProt P15848: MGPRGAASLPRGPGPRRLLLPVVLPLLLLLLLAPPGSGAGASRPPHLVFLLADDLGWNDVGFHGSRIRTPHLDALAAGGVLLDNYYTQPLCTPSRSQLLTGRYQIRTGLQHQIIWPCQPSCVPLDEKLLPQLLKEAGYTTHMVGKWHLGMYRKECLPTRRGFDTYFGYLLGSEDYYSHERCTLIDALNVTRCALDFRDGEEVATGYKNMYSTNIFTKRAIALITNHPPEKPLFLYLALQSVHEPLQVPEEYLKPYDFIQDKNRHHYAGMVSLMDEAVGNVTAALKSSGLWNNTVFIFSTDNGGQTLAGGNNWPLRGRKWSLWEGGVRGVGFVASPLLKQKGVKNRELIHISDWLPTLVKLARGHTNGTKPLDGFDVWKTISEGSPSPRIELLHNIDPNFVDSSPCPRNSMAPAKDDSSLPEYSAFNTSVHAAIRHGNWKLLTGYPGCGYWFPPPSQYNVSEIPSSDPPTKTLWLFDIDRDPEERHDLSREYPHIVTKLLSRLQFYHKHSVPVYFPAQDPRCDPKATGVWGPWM
UniProt Q06055: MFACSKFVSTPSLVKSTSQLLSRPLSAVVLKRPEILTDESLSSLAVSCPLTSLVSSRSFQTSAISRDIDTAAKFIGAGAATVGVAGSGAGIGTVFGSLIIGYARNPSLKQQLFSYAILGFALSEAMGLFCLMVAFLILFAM
UniProt Q9H2C2: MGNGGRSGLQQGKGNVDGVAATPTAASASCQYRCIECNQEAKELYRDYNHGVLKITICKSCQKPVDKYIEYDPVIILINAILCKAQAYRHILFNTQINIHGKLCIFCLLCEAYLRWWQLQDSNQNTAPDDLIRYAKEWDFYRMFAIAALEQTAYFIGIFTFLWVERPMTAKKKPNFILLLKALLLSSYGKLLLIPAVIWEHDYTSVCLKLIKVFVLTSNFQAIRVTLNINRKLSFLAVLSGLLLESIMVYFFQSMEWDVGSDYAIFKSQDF
UniProt P15289: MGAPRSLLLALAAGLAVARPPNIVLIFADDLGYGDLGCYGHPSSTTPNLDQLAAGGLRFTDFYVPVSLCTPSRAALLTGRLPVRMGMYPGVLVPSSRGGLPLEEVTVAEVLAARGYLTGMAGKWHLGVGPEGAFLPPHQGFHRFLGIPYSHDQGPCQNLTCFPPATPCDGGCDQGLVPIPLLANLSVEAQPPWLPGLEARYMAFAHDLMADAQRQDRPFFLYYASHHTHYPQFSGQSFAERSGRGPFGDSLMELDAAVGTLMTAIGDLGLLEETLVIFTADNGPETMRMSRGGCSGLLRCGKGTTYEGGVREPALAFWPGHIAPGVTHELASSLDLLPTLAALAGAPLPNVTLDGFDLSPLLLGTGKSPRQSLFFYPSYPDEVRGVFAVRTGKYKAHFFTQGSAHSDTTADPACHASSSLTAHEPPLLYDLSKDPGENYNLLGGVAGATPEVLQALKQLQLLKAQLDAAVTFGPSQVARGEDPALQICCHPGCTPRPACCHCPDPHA
UniProt P36404: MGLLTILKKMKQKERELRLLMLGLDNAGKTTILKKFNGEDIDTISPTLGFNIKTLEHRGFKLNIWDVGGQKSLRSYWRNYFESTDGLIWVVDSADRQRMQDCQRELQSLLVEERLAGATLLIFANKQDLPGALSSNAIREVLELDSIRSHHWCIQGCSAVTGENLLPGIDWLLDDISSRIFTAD
UniProt Q6DD88: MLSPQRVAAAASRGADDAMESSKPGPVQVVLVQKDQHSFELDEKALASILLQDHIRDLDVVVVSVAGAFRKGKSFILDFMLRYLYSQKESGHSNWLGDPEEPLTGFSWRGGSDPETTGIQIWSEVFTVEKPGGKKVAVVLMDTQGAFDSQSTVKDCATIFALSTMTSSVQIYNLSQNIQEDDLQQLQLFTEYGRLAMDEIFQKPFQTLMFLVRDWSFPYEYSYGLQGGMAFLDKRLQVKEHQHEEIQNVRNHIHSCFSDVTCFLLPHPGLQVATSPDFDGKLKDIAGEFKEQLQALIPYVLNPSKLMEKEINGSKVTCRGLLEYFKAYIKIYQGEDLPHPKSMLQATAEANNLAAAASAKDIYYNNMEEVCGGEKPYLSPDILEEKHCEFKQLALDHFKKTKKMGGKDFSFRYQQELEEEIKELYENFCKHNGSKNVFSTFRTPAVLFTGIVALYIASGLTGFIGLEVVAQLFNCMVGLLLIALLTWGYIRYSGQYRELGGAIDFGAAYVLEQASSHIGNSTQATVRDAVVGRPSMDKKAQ
UniProt Q9H1Y0: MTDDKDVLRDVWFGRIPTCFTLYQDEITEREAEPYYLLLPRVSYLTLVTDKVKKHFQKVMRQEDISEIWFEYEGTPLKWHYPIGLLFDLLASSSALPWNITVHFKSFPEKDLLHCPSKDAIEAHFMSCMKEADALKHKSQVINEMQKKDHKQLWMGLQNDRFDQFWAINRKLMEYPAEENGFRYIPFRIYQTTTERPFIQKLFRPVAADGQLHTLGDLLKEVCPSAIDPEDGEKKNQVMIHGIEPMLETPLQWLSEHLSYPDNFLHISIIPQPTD
UniProt O75143: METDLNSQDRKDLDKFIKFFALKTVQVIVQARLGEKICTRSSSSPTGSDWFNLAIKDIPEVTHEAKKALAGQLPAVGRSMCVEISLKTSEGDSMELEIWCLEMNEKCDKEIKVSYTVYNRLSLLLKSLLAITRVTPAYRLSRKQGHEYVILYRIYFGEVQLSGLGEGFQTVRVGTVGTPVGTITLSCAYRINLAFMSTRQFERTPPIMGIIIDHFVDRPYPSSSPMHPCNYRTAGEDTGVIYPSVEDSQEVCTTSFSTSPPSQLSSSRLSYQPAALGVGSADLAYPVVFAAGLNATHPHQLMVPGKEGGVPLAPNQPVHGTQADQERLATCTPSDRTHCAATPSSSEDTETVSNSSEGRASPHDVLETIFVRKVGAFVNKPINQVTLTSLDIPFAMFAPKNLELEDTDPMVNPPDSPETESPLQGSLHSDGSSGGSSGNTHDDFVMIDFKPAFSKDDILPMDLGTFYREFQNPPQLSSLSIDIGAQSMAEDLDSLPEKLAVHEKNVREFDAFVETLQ
UniProt Q9NVJ2: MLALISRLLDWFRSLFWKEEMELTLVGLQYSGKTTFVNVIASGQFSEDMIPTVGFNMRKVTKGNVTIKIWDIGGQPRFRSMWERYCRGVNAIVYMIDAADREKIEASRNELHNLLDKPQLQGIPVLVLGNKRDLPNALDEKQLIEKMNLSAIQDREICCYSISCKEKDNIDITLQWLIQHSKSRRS
UniProt P06576, whole entry, looked up: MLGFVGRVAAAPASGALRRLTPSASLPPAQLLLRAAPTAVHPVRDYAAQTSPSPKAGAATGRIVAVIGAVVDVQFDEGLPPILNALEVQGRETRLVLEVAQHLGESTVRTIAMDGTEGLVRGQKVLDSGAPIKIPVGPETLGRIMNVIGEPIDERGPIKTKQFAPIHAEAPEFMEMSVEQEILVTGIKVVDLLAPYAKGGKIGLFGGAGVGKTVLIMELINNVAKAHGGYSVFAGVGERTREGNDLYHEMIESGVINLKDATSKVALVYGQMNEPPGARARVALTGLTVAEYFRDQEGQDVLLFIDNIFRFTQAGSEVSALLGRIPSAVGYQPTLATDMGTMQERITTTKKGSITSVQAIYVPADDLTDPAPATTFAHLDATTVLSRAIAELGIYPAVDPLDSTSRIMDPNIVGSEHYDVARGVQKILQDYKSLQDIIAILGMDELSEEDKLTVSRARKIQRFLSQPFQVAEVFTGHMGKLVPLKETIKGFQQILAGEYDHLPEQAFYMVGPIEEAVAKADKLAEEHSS
UniProt P56134: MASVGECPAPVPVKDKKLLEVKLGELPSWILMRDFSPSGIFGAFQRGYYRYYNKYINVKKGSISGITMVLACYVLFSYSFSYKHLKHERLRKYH
UniProt P25705: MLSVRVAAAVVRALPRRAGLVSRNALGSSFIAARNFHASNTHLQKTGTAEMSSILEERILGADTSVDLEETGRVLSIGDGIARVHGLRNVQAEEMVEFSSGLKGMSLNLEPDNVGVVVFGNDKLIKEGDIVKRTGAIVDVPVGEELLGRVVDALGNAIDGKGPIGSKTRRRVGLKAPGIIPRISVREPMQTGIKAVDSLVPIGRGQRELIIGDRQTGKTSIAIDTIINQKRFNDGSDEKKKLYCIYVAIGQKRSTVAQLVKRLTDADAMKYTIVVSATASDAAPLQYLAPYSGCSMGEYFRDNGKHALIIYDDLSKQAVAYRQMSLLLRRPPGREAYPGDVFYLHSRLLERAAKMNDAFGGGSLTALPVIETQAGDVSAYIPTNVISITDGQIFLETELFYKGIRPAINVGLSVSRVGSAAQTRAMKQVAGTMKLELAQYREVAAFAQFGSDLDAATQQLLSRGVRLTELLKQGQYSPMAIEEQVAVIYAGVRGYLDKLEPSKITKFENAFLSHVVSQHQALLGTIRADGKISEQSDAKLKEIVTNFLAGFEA
UniProt P36542: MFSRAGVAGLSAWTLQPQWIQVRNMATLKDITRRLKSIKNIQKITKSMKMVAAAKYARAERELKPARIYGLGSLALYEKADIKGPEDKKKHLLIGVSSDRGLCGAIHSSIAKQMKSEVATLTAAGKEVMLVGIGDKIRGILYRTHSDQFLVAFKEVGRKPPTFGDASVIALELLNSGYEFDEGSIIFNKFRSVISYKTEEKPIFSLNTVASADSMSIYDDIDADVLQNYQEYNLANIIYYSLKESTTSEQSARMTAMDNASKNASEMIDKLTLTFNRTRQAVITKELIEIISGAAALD
UniProt P56378: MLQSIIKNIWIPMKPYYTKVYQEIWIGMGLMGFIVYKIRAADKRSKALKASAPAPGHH

What was measured:
Test in all cases: log2 fold change, soluble protein after heating vs DMSO (PISA); higher = thermal stabilisation; K562 cells, 10 uM, 30 min; active = over 0.2 and 3.5 SD of the protein, either way, in both replicates (recomputed)
[1] = compound: COC1=CC=C(C=C1)CN2C=CC3=C2C=C(C=C3)C(=O)NO
Method in brief: (§1)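 Soluble protein was defined as the supernatant after 21,000xg for 90 min. It came from K562 cells at 2×10^6 cells/mL given 10 μM compound for 30 min, heated in aliquots for 3 min across 48°C-58°C, pooled, and extracted in PBS with 0.5% NP-40 at 4°C, and was quantified by TMTpro 16plex LC-MS/MS with equalised channel sums. Thermal stability against control samples, from duplicates, is reported as log2 fold change.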

filanesib = compound: CON(C)C(=O)N1N=C(c2cc(F)ccc2F)S[C@@]1(CCCN)c1ccccc1 [filanesib]
Method in brief: as §1

zotarolimus = compound: CO[C@H]1C[C@@H]2CC[C@@H](C)[C@@](O)(O2)C(=O)C(=O)N2CCCC[C@H]2C(=O)O[C@H]([C@H](C)C[C@@H]2CC[C@H](n3cnnn3)[C@H](OC)C2)CC(=O)[C@H](C)/C=C(\C)[C@@H](O)[C@@H](OC)C(=O)[C@H](C)C[C@H](C)/C=C/C=C/C=C/1C [zotarolimus]
Method in brief: as §1

idasanutlin = compound: COc1cc(C(=O)O)ccc1NC(=O)[C@@H]1N[C@@H](CC(C)(C)C)[C@](C#N)(c2ccc(Cl)cc2F)[C@H]1c1cccc(Cl)c1F [idasanutlin]
Method in brief: as §1

alisertib = compound: COc1cc(Nc2ncc3c(n2)-c2ccc(Cl)cc2C(c2c(F)cccc2OC)=NC3)ccc1C(=O)O [alisertib]
Method in brief: as §1

[2] = compound: COc1cc2nc(-c3cc(F)ccc3O)nc(N[C@@H]3CNC[C@H]3C(C)(C)O)c2cc1OC
Method in brief: as §1

gefitinib = compound: COc1cc2ncnc(Nc3ccc(F)c(Cl)c3)c2cc1OCCCN1CCOCC1 [gefitinib]
Method in brief: as §1

[3] = compound: COc1cccc2cc(-c3nc([C@H]4CC[C@H](C(=O)O)CC4)n4ncnc(N)c34)[nH]c12
Method in brief: as §1

lapatinib = compound: CS(=O)(=O)CCNCc1ccc(-c2ccc3ncnc(Nc4ccc(OCc5cccc(F)c5)c(Cl)c4)c3c2)o1 [lapatinib]
Method in brief: as §1

pictilisib = compound: CS(=O)(=O)N1CCN(Cc2cc3nc(-c4cccc5[nH]ncc45)nc(N4CCOCC4)c3s2)CC1 [pictilisib]
Method in brief: as §1

[4] = compound: CS(=O)(=O)c1ccc(-c2cnc(N)c(C(=O)Nc3ccccc3)n2)cc1
Method in brief: as §1

crizotinib = compound: C[C@@H](Oc1cc(-c2cnn(C3CCNCC3)c2)cnc1N)c1c(Cl)ccc(F)c1Cl [crizotinib]
Method in brief: as §1

[5] = compound: C[C@@H]1COCCN1C2=NC(=NC(=C2)C3(CC3)S(=O)(=O)C)C4=C5C=CNC5=CC=C4
Method in brief: as §1

[6] = compound: C[C@H](C1=CC=C(C=C1)C(=O)NC2=C3C=CNC3=NC=C2)N
Method in brief: as §1

duvelisib = compound: C[C@H](Nc1ncnc2nc[nH]c12)c1cc2cccc(Cl)c2c(=O)n1-c1ccccc1 [duvelisib]
Method in brief: as §1

gandotinib = compound: Cc1cc(Nc2cc(CN3CCOCC3)c3nc(C)c(Cc4ccc(Cl)cc4F)n3n2)n[nH]1 [gandotinib]
Method in brief: as §1

tozasertib = compound: Cc1cc(Nc2cc(N3CCN(C)CC3)nc(Sc3ccc(NC(=O)C4CC4)cc3)n2)n[nH]1 [tozasertib]
Method in brief: as §1

[7] = compound: Cc1cc(SCc2sc(-c3ccc(C(F)(F)F)cc3)nc2C)ccc1OCC(=O)O
Method in brief: as §1

doramapimod = compound: Cc1ccc(-n2nc(C(C)(C)C)cc2NC(=O)Nc2ccc(OCCN3CCOCC3)c3ccccc23)cc1 [doramapimod]
Method in brief: as §1

ispinesib = compound: Cc1ccc(C(=O)N(CCCN)[C@@H](c2nc3cc(Cl)ccc3c(=O)n2Cc2ccccc2)C(C)C)cc1 [ispinesib]
Method in brief: as §1

Measured: log2 fold change

ARPC3 (UniProt O15145)
inactive: [1] -0.006 | filanesib 0.056 | zotarolimus 0 | idasanutlin 0.022 | alisertib -0.037 | [2] -0.002 | gefitinib 0.001 | [3] 0.129 | lapatinib 0.011 | pictilisib 0.073 | [4] 0.02 | crizotinib 0.051 | [5] 0.057 | [6] -0.146 | duvelisib 0.014 | gandotinib 0.039 | tozasertib 0.076 | [7] 0.009 | doramapimod -0.023 | ispinesib 0.151

ARSB (UniProt P15848)
inactive: [1] -0.076 | filanesib -0.03 | zotarolimus -0.088 | idasanutlin -0.018 | alisertib 0.003 | [2] 0.014 | gefitinib 0.074 | [3] 0.051 | lapatinib -0.089 | pictilisib 0.022 | [4] -0.02 | crizotinib -0.052 | [5] 0.042 | [6] 0.139 | duvelisib 0.176 | gandotinib -0.037 | tozasertib 0.064 | [7] 0.033 | doramapimod 0.032 | ispinesib -0.032

ATP5MC2 isoform 2 (UniProt Q06055)
inactive: [1] -0.103 | filanesib -0.025 | zotarolimus 0.005 | idasanutlin -0.052 | alisertib 0.099 | [2] -0.099 | gefitinib 0.024 | [3] -0.066 | lapatinib -0.003 | pictilisib 0.084 | [4] 0.064 | crizotinib -0.049 | [5] 0.161 | [6] -0.089 | duvelisib 0.067 | gandotinib -0.059 | tozasertib 0.002 | [7] -0.148 | doramapimod 0.047 | ispinesib -0.072

ARV1 (UniProt Q9H2C2)
inactive: [1] -0.058 | filanesib -0.094 | zotarolimus -0.032 | idasanutlin -0.043 | alisertib 0.007 | [2] -0.131 | gefitinib -0.018 | [3] 0.086 | lapatinib 0.033 | pictilisib -0.051 | [4] 0.006 | crizotinib 0.043 | [5] 0.01 | [6] -0.046 | duvelisib -0.028 | gandotinib -0.147 | tozasertib 0.032 | [7] 0.002 | doramapimod 0.037 | ispinesib -0.057

ARSA (UniProt P15289)
inactive: [1] 0.082 | filanesib 0.025 | zotarolimus 0.016 | idasanutlin 0.017 | alisertib -0.018 | [2] 0.146 | gefitinib -0.07 | [3] 0.07 | lapatinib 0.037 | pictilisib 0.145 | [4] 0.02 | crizotinib -0.041 | [5] 0.047 | [6] 0.065 | duvelisib 0.146 | gandotinib 0.062 | tozasertib 0.145 | [7] -0.069 | doramapimod 0.004 | ispinesib -0.065

ARL2 (UniProt P36404)
inactive: [1] -0.069 | filanesib -0.089 | zotarolimus -0.029 | idasanutlin -0.113 | alisertib 0.003 | [2] 0.07 | gefitinib 0.015 | [3] 0.049 | lapatinib -0.072 | pictilisib 0.005 | [4] -0.007 | crizotinib 0.002 | [5] 0.088 | [6] -0.027 | duvelisib 0.072 | gandotinib -0.085 | tozasertib 0.015 | [7] -0.024 | doramapimod -0.025 | ispinesib 0.036

ATL3 (UniProt Q6DD88)
inactive: [1] -0.022 | filanesib -0.066 | zotarolimus 0.044 | idasanutlin -0.119 | alisertib -0.014 | [2] 0.018 | gefitinib -0.026 | [3] 0.05 | lapatinib -0.009 | pictilisib -0.016 | [4] 0.007 | crizotinib -0.082 | [5] 0.047 | [6] -0.078 | duvelisib 0.026 | gandotinib -0.061 | tozasertib -0.026 | [7] 0.019 | doramapimod -0.01 | ispinesib 0.014

ATG5 (UniProt Q9H1Y0)
inactive: [1] 0.075 | filanesib -0.072 | zotarolimus 0.045 | idasanutlin -0.028 | alisertib -0.072 | [2] -0.009 | gefitinib -0.005 | [3] 0.002 | lapatinib 0.028 | pictilisib 0 | [4] 0.05 | crizotinib -0.042 | [5] 0.022 | [6] -0.031 | duvelisib 0.073 | gandotinib -0.008 | tozasertib 0.059 | [7] -0.032 | doramapimod -0.025 | ispinesib 0.055

ATG13 isoform 5 (UniProt O75143)
inactive: [1] 0.015 | filanesib 0.042 | zotarolimus -0.025 | idasanutlin 0.037 | alisertib 0.009 | [2] -0.058 | gefitinib -0.017 | [3] -0.059 | lapatinib -0.009 | pictilisib 0.065 | [4] 0.037 | crizotinib 0.007 | [5] -0.015 | [6] 0.025 | duvelisib 0.054 | gandotinib 0.219 | tozasertib 0.071 | [7] 0.02 | doramapimod 0.051 | ispinesib 0.008

ARL8B (UniProt Q9NVJ2)
inactive: [1] -0.04 | filanesib -0.138 | zotarolimus -0.025 | idasanutlin -0.003 | alisertib 0.004 | [2] -0.049 | gefitinib -0.001 | [3] 0.026 | lapatinib -0.022 | pictilisib -0.023 | [4] 0.008 | crizotinib -0.082 | [5] -0.013 | [6] -0.045 | duvelisib 0.016 | gandotinib 0.062 | tozasertib -0.011 | [7] -0.002 | doramapimod -0.025 | ispinesib -0.123

ATP5F1B (UniProt P06576)
inactive: [1] -0.033 | filanesib -0.025 | zotarolimus -0.025 | idasanutlin -0.001 | alisertib -0.08 | [2] -0.006 | gefitinib 0.018 | [3] 0.064 | lapatinib -0.009 | pictilisib 0.01 | [4] 0.02 | crizotinib 0.059 | [5] 0.002 | [6] -0.023 | duvelisib 0.004 | gandotinib 0.004 | tozasertib -0.014 | [7] -0.022 | doramapimod 0.012 | ispinesib 0.003

ATP5MF (UniProt P56134)
inactive: [1] -0.025 | filanesib -0.023 | zotarolimus -0.031 | idasanutlin -0.018 | alisertib -0.194 | [2] -0.057 | gefitinib 0.008 | [3] 0.058 | lapatinib 0.12 | pictilisib 0.065 | [4] 0.01 | crizotinib 0.042 | [5] 0.023 | [6] -0.035 | duvelisib 0.048 | gandotinib 0.103 | tozasertib 0.002 | [7] -0.056 | doramapimod -0.037 | ispinesib 0.023

ATP5F1A (UniProt P25705)
inactive: [1] -0.052 | filanesib -0.026 | zotarolimus -0.042 | idasanutlin 0.021 | alisertib -0.03 | [2] -0.005 | gefitinib 0.002 | [3] 0.05 | lapatinib -0.003 | pictilisib -0.03 | [4] -0.01 | crizotinib 0.02 | [5] -0.02 | [6] -0.041 | duvelisib -0.011 | gandotinib -0.024 | tozasertib -0.01 | [7] -0.034 | doramapimod 0.004 | ispinesib -0.02

ATP5F1C (UniProt P36542)
inactive: [1] -0.019 | filanesib 0 | zotarolimus -0.008 | idasanutlin -0.057 | alisertib -0.05 | [2] 0.026 | gefitinib 0.007 | [3] 0.039 | lapatinib -0.045 | pictilisib 0.087 | [4] -0.002 | crizotinib 0.043 | [5] 0.059 | [6] -0.006 | duvelisib 0.025 | gandotinib 0.018 | tozasertib -0.008 | [7] -0.009 | doramapimod -0.012 | ispinesib 0

ATP5MPL (UniProt P56378)
inactive: [1] 0.017 | filanesib 0.105 | zotarolimus -0.043 | idasanutlin -0.003 | alisertib -0.052 | [2] 0.09 | gefitinib 0.052 | [3] 0.047 | lapatinib 0.097 | pictilisib 0.124 | [4] 0.002 | crizotinib 0.089 | [5] 0.029 | [6] -0.135 | duvelisib 0.037 | gandotinib -0.028 | tozasertib 0.027 | [7] -0.088 | doramapimod -0.043 | ispinesib 0.233

Taken from above (two entries):
ATP5MF (UniProt P56134)
inactive: [1] -0.025 | filanesib -0.023 | zotarolimus -0.031 | idasanutlin -0.018 | alisertib -0.194 | [2] -0.057 | gefitinib 0.008 | [3] 0.058 | lapatinib 0.12 | pictilisib 0.065 | [4] 0.01 | crizotinib 0.042 | [5] 0.023 | [6] -0.035 | duvelisib 0.048 | gandotinib 0.103 | tozasertib 0.002 | [7] -0.056 | doramapimod -0.037 | ispinesib 0.023

ATP5F1A (UniProt P25705)
inactive: [1] -0.052 | filanesib -0.026 | zotarolimus -0.042 | idasanutlin 0.021 | alisertib -0.03 | [2] -0.005 | gefitinib 0.002 | [3] 0.05 | lapatinib -0.003 | pictilisib -0.03 | [4] -0.01 | crizotinib 0.02 | [5] -0.02 | [6] -0.041 | duvelisib -0.011 | gandotinib -0.024 | tozasertib -0.01 | [7] -0.034 | doramapimod 0.004 | ispinesib -0.02

Additional entries follow:

ARPC4 isoform 3 (UniProt P59998)
inactive: [1] -0.127 | filanesib -0.007 | zotarolimus 0.022 | idasanutlin -0.039 | alisertib -0.048 | [2] 0.058 | gefitinib 0.013 | [3] 0.083 | lapatinib -0.066 | pictilisib 0.108 | [4] 0.058 | crizotinib 0.078 | [5] 0.147 | [6] -0.07 | duvelisib 0.014 | gandotinib 0.022 | tozasertib 0.052 | [7] -0.061 | doramapimod -0.014 | ispinesib 0.068
